Our source for the binding values is PMC6497644.

This test has as its target T1, TMEM33 N term (amino acids 1–24), in frame with LexA (UniProt Q9CR67).
T1 sequence: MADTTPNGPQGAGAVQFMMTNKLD
Put plainly: two-hybrid; LexA/B42 Grow'n'Glow system, yeast EGY48; bait TMEM33 terminus in frame with LexA, prey PC2 terminus in frame with B42; growth on -HIS-TRP-URA-LEU + galactose and GFP.

Results are given in words; binding and its absence hold for the method and conditions named. Some results given as binding are weak or reduced against the parent protein; the word gives no strength.

B1: PC2 C term (amino acids 677–968), in frame with B42 (domain or fragment, UniProt Q13563 677-968)
chain: LAIINDTYSEVKSDLAQQKAEMELSDLIRKGYHKALVKLKLKKNTVDDISESLRQGGGKLNFDELRQDLKGKGHTDAEIEAIFTKYDQDGDQELTEHEHQQMRDDLEKEREDLDLDHSSLPRPMSSRSFPRSLDDSEEDDDEDSGHSSRRRGSISSGVSYEEFQVLVRRVDRMEHSIGSIVSKIDAVIVKLEIMERAKLKRREVLGRLLDGVAEDERLGRDSEIHREQMERLVREELERWESDDAASQISHGLGTPVGLNGQPRPRSSRPSSSQSTEGMEGAGGNGSSNVHV
Take B1: the binding result is listed as “binds”.
